Results on 24 sequences are retold here after the supplement of paper PMC10338343.

± gives the standard deviation. The entries are a selection whose mix differs from that of the whole data set. Many of these values have a large error.
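Note: 1 nM active piRISC with 0.1 nM target library at 33 °C single turnover.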

The test system of the test is MILI (PIWIL2) piRISC loaded with piRNA #1 (26 nt). The experiment in a line: pre-steady-state target cleavage rate (min^-1); MIWI and MILI are mouse PIWI proteins and EfPiwi is from a freshwater sponge; tags in brackets are library labels; higher = faster piRNA-guided slicing of the target. The note with it: guide: piRNA #1 5'p-UGAGGUAGUAGGUUGUAUAGUAUCCA; auxiliary factor: 500 nM mouse GTSF1. In outline: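 A burst-and-steady-state fit was used to obtain the pre-steady-state cleavage rate. The input data were sequencing reads of uncleaved targets, normalised to depth and to weakly complementary targets, from a […] transcribed, DNA-blocked target RNA library mixed with 1 nM active affinity-purified piRISC holding one synthetic guide, with or without 500 nM GTSF1 partner protein, in HEPES–potassium acetate buffer at 33 °C for 0–8 or 0–960 min. Three trials were pooled and k3 was capped at 0.0001 min^-1.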
Regarding GGAGACCUAUGAUAACAACCUACUACCAGA, the “pre-steady-state target cleavage rate” value is 0.00109 ± 0.005.

For the sequence GGAGACCUAUGAAUACAAUCCUACUACCUCA, the “pre-steady-state target cleavage rate” value came to 0.000677 ± 0.0067.

Regarding GGAGACCUAUGAUAUGUACCUUGUACCUCA, the “pre-steady-state target cleavage rate” value turned out to be 0.000114 ± 0.029.

As for GGAGAGGAGACUAUACAACCUACUACCUCA, the “pre-steady-state target cleavage rate” value turned out to be 0.25 ± 0.052.

On to GGAGACCUAUGAUAUCAACGUACAACCUCA, for which the “pre-steady-state target cleavage rate” value was found to be 0.00109 ± 0.0057.

As to GGAGACCUAUGAUAACAACCUAUACCUCA, the “pre-steady-state target cleavage rate” value came out at 0.00058 ± 0.01.

For the sequence GGAGACCUUACUAUACAGACCUACUACCUCA, the “pre-steady-state target cleavage rate” value is 0.000356 ± 0.018.

For GGAGACCUAUGAUAUGUUGGUACUACGUGA, the “pre-steady-state target cleavage rate” value was determined as 0.000255 ± 0.017.

For GGAGACGAUACUAUAGAACCUACUUCCUCA, the “pre-steady-state target cleavage rate” value worked out at 0.0055 ± 0.0044.

Regarding GGAGACCUAUGAUAUCUAGCUACUACCUCA, the “pre-steady-state target cleavage rate” value amounted to 0.000106 ± 0.022.

In the case of GGAGACGAUACAAUACAUCCUACUACCUCA, the “pre-steady-state target cleavage rate” value was 0.312 ± 0.016.

For the sequence GGAGACCUAUGAUAUGUACCAACAACCUCA, the “pre-steady-state target cleavage rate” value was < 0.0001.

Turning to GGAGUGGAUACUAUACAUCCUAGUACCUCA, the “pre-steady-state target cleavage rate” value is 0.103 ± 0.019.

For GGAGACGAUACUAUACAGACCUACUACCUCA, the “pre-steady-state target cleavage rate” value is 0.00134 ± 0.0045.

As for GGAGACCUAUGAAUAGAACGUACUACCUCA, the “pre-steady-state target cleavage rate” value came to 0.000477 ± 0.0079.

For GGAGACCUUACUAGACAACCUACUACCUCA, the “pre-steady-state target cleavage rate” value was 0.155 ± 0.015.

Turning to GGAGACCUAACUAUACAGCCUACUACCUCA, the “pre-steady-state target cleavage rate” value was 0.0605 ± 0.018.

GGAGUGGAUUGAAUACAACCUACUACCUCA: the “pre-steady-state target cleavage rate” value worked out at 0.0713 ± 0.0073.

With GGAGACCUAUGAUAUGUUGGUAGUUCCUCA, the “pre-steady-state target cleavage rate” value came to 0.000107 ± 0.02.

In the case of GGAGACCAAACUAUACAACCAACUACCUCA, the “pre-steady-state target cleavage rate” value turned out to be 0.00252 ± 0.0084.

In the case of GGAGUGGAUACUAUACAACCAACUUCCUCA, the “pre-steady-state target cleavage rate” value turned out to be 0.00125 ± 0.0037.

As to GGAGACCUAUGAUAACAACCUAGUACCACA, the “pre-steady-state target cleavage rate” value was found to be 0.000222 ± 0.016.

On to GGAGACCAUACUAUACAACCUACUGACCUCA, for which the “pre-steady-state target cleavage rate” value came to 0.0765 ± 0.017.

For the sequence GGAGAGGAUACUAUACAACCUACUGACCUCA, the “pre-steady-state target cleavage rate” value came to 0.077 ± 0.013.
